Some of the results follow.
Experiments:
Experiment in all cases: glycan array binding signal (z-score within array); higher = stronger binding
Settings in all cases: glycan notation: IUPAC condensed, linker removed; mutation: Q318A
[1] = biological target: Gal(b1-4)GlcNAc(b1-3)Gal(b1-4)GlcNAc(b1-3)[Gal(b1-4)GlcNAc(b1-3)Gal(b1-4)GlcNAc(b1-6)]GalNAc
Summary of the method: (§1)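 The Consortium for Functional Glycomics database supplied 3228 glycan arrays, of which those lacking an available protein sequence were dropped. The binding signal, a within-array Z-score, was averaged across arrays of the same protein sequence and across linkers. Negative scores can be read as non-binding.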

[2] = biological target: Gal(b1-4)GlcNAc(b1-3)Gal(b1-4)GlcNAc(b1-6)[Gal(b1-3)]GalNAc
Summary of the method: as §1

[3] = biological target: Gal(b1-4)GlcNAc(b1-3)Gal(b1-4)[Fuc(a1-3)]GlcNAc(b1-3)Gal(b1-4)[Fuc(a1-3)]GlcNAc
Summary of the method: as §1

[4] = biological target: Gal(b1-4)GlcNAc(b1-3)GalNAc
Summary of the method: as §1

[5] = biological target: Gal(b1-4)GlcNAc(b1-3)[Fuc(a1-3)GlcNAc(b1-6)]Gal(b1-4)Glc
Summary of the method: as §1

[6] = biological target: Gal(b1-4)GlcNAc(b1-3)[Gal(b1-4)GlcNAc(b1-6)]Gal(b1-4)GlcNAc
Summary of the method: as §1

[7] = biological target: Gal(b1-4)GlcNAc(b1-3)[GlcNAc(b1-6)]Gal(b1-4)GlcNAc
Summary of the method: as §1

[8] = biological target: Gal(b1-4)GlcNAc(b1-6)Gal(b1-4)GlcNAc
Summary of the method: as §1

[9] = biological target: Gal(b1-4)GlcNAc(b1-6)GalNAc
Summary of the method: as §1

[10] = biological target: Gal(b1-4)GlcNAc(b1-6)[Gal(b1-3)]GalNAc
Summary of the method: as §1

[11] = biological target: Gal(b1-4)GlcNAc(b1-6)[Gal(b1-4)GlcNAc(b1-3)]GalNAc
Summary of the method: as §1

[12] = biological target: Gal(b1-4)GlcNAc6P
Summary of the method: as §1

[13] = biological target: Gal(b1-6)Gal
Summary of the method: as §1

[14] = biological target: Gal3S(b1-3)GalNAc
Summary of the method: as §1

[15] = biological target: Gal3S(b1-3)GlcNAc
Summary of the method: as §1

[16] = biological target: Gal3S(b1-3)[Fuc(a1-4)]GlcNAc
Summary of the method: as §1

[17] = biological target: Gal3S(b1-4)Glc
Summary of the method: as §1

[18] = biological target: Gal3S(b1-4)Glc6S
Summary of the method: as §1

[19] = biological target: Gal3S(b1-4)GlcNAc
Summary of the method: as §1

[20] = biological target: Gal3S(b1-4)[Fuc(a1-3)]Glc6S
Summary of the method: as §1

[21] = biological target: Gal3S(b1-4)[Fuc(a1-3)]GlcNAc
Summary of the method: as §1

[22] = biological target: Gal3S(b1-4)[Fuc(a1-3)]GlcNAc6S
Summary of the method: as §1

[23] = biological target: Gal3S4S(b1-4)GlcNAc
Summary of the method: as §1

[24] = biological target: Gal3S6S(b1-4)GlcNAc
Summary of the method: as §1

[25] = biological target: Gal3S6S(b1-4)GlcNAc6S
Summary of the method: as §1

[26] = biological target: Gal4S(b1-4)GlcNAc
Summary of the method: as §1

[27] = biological target: Gal4S6S(b1-4)GlcNAc
Summary of the method: as §1

[28] = biological target: Gal6P(b1-4)GlcNAc
Summary of the method: as §1

[29] = biological target: Gal6S(b1-3)GlcNAc
Summary of the method: as §1

[30] = biological target: Gal6S(b1-3)GlcNAc6S
Summary of the method: as §1

[31] = biological target: Gal6S(b1-4)Glc
Summary of the method: as §1

[32] = biological target: Gal6S(b1-4)Glc6S
Summary of the method: as §1

[33] = biological target: Gal6S(b1-4)GlcNAc
Summary of the method: as §1

[34] = biological target: Gal6S(b1-4)GlcNAc6S
Summary of the method: as §1

[35] = biological target: GalNAc(a1-3)Gal
Summary of the method: as §1

[36] = biological target: GalNAc(a1-3)GalNAc
Summary of the method: as §1

[37] = biological target: GalNAc(a1-3)GalNAc(b1-3)Gal(a1-4)Gal(b1-4)Glc
Summary of the method: as §1

B1: SUN4 (Saccharomyces cerevisiae), P53616 (protein)
chain: MGSSHHHHHHSSGLVPRGSHNGSIYGDLADFSGPYEKFEDGTIPCGQFPSGQGVIPISWLDEGGWSGVENTDTSTGGSCKEGSYCSYACQPGMSKTQWPSDQPSDGRSIGGLLCKDGYLYRSNTDTDYLCEWGVDAAYVVSELSNDVAICRTDYPGTENMVIPTYVQAGDSLPLTVVDQDTYYTWQGLKTSAAYYVNNAGISVEDACVWGSSSSGVGNWAPLNFGAGSSDGVAYLSLIPNPNNGNALNFNVKIVAADDSSTVNGECIYENGSFSGGSDGCTVSVTAGKAKFVLYN
glycan array binding signal (z-score) [1]: -0.273 | glycan array binding signal (z-score) [2]: 0.13 | glycan array binding signal (z-score) [3]: 0.316 | glycan array binding signal (z-score) [4]: -0.472 | glycan array binding signal (z-score) [5]: 0.019 | glycan array binding signal (z-score) [6]: 0.278 | glycan array binding signal (z-score) [7]: -0.193 | glycan array binding signal (z-score) [8]: -0.572 | glycan array binding signal (z-score) [9]: 0.431 | glycan array binding signal (z-score) [10]: -0.548 | glycan array binding signal (z-score) [11]: 0.195 | glycan array binding signal (z-score) [12]: 0.216 | glycan array binding signal (z-score) [13]: -0.873 | glycan array binding signal (z-score) [14]: -1.22 | glycan array binding signal (z-score) [15]: 0.444 | glycan array binding signal (z-score) [16]: 0 | glycan array binding signal (z-score) [17]: 0.539 | glycan array binding signal (z-score) [18]: 0.465 | glycan array binding signal (z-score) [19]: 0.228 | glycan array binding signal (z-score) [20]: -0.254 | glycan array binding signal (z-score) [21]: 0.614 | glycan array binding signal (z-score) [22]: 1.28 | glycan array binding signal (z-score) [23]: -0.608 | glycan array binding signal (z-score) [24]: -0.478 | glycan array binding signal (z-score) [25]: -0.016 | glycan array binding signal (z-score) [26]: -0.432 | glycan array binding signal (z-score) [27]: 0.261 | glycan array binding signal (z-score) [28]: -0.125 | glycan array binding signal (z-score) [29]: 0.725 | glycan array binding signal (z-score) [30]: -0.115 | glycan array binding signal (z-score) [31]: -0.206 | glycan array binding signal (z-score) [32]: -1.18 | glycan array binding signal (z-score) [33]: -0.239 | glycan array binding signal (z-score) [34]: 1.22 | glycan array binding signal (z-score) [35]: 0.233 | glycan array binding signal (z-score) [36]: -1.37 | glycan array binding signal (z-score) [37]: -0.695

Reference: the supplement of paper PMC8728848
